Experimental data taken from article PMC8298264, “Function of cofactor Akirin2 in the regulation of gene expression in model human neutrophil-like HL60 cells” (Bioscience Reports, 2021).
Results are given in words; binding and its absence hold for the method and conditions named. Binding seen in cells or lysates may run through a third protein. Some entries that bind do so weakly or less than the wild type.

By UniProt entry, the sequences of proteins in these tests, tags left out.
UniProt Q53H80: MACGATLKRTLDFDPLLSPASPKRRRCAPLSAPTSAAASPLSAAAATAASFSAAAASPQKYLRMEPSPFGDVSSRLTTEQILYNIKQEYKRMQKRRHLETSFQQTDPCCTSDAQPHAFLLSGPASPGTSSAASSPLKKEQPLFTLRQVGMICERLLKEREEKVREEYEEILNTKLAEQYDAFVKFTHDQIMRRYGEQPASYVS

What follows are binders tested against Human recombinant Akirin2 produced in human kidney HEK293T cells, COOH-(Myc-DDK)-tagged (human) (UniProt Q53H80) (assay: pull-down; Myc-DDK-tagged recAkirin2 on c-Myc magnetic beads, incubated with 200 or 400 µg of HL60 protein lysate for 2 h at RT; eluates tested by dot blot with antibodies specific for each protein; dot areas compared with SNRNP70; only the target purified).

binding | Binder
binds | protein Wnt-2 (protein, UniProt P09544 26-360) SWWYMRATGGSSRVMCDNVPGLVSSQRQLCHRHPDVMRAISQGVAEWTAECQHQFRQHRWNCNTLDRDHSLFGRVLLRSSRESAFVYAISSAGVVFAITRACSQGEVKSCSCDPKKMGSAKDSKGIFDWGGCSDNIDYGIKFARAFVDAKERKGKDARALMNLHNNRAGRKAVKRFLKQECKCHGVSGSCTLRTCWLAMADFRKTGDYLWRKYNGAIQVVMNQDGTGFTVANERFKKPTKNDLVYFENSPDYCIRDREAGSLGTAGRVCNLTSRGMDSCEVMCCGRGYDTSHVTRMTKCGCKFHWCCAVRCQDCLEALDVHTCKAPKNADWTTAT
binds | mediator of RNA polymerase II transcription subunit 16 (protein, UniProt Q9Y2X0 1-877) MCDLRRPAAGGMMDLAYVCEWEKWSKSTHCPSVPLACAWSCRNLIAFTMDLRSDDQDLTRMIHILDTEHPWDLHSIPSEHHEAITCLEWDQSGSRLLSADADGQIKCWSMADHLANSWESSVGSLVEGDPIVALSWLHNGVKLALHVEKSGASSFGEKFSRVKFSPSLTLFGGKPMEGWIAVTVSGLVTVSLLKPSGQVLTSTESLCRLRGRVALADIAFTGGGNIVVATADGSSASPVQFYKVCVSVVSEKCRIDTEILPSLFMRCTTDLNRKDKFPAITHLKFLARDMSEQVLLCASSQTSSIVECWSLRKEGLPVNNIFQQISPVVGDKQPTILKWRILSATNDLDRVSAVALPKLPISLTNTDLKVASDTQFYPGLGLALAFHDGSVHIVHRLSLQTMAVFYSSAAPRPVDEPAMKRPRTAGPAVHLKAMQLSWTSLALVGIDSHGKLSVLRLSPSMGHPLEVGLALRHLLFLLEYCMVTGYDWWDILLHVQPSMVQSLVEKLHEEYTRQTAALQQVLSTRILAMKASLCKLSPCTVTRVCDYHTKLFLIAISSTLKSLLRPHFLNTPDKSPGDRLTEICTKITDVDIDKVMINLKTEEFVLDMNTLQALQQLLQWVGDFVLYLLASLPNQGSLLRPGHSFLRDGTSLGMLRELMVVIRIWGLLKPSCLPVYTATSDTQDSMSLLFRLLTKLWICCRDEGPASEPDEALVDECCLLPSQLLIPSLDWLPASDGLVSRLQPKQPLRLQFGRAPTLPGSAATLQLDGLARAPGQPKIDHLRRLHLGACPTEECKACTRCGCVTMLKSPNRTTAVKQWEQRWIKNCLAVEGRGPDACVTSRASEEAPAFVQLGPQSTHHSPRTPRSLDHLHPEDRP
binds | phosphatidylinositol transfer protein-α isoform (protein, UniProt Q00169 1-270) MVLLKEYRVILPVSVDEYQVGQLYSVAEASKNETGGGEGVEVLVNEPYEKDGEKGQYTHKIYHLQSKVPTFVRMLAPEGALNIHEKAWNAYPYCRTVITNEYMKEDFLIKIETWHKPDLGTQENVHKLEPEAWKHVEAVYIDIADRSQVLSKDYKAEEDPAKFKSIKTGRGPLGPNWKQELVNQKDCPYMCAYKLVTVKFKWWGLQNKVENFIHKQERRLFTNFHRQLFCWLDKWVDLTMDDIRRMEEETKRQLDEMRQKDPVKGMTADD
